Data taken from article PMC5529015.
No constants are given. Whether binding was seen depends on the method and setting. Binding seen in cells or lysates may run through a third protein. A yes stands for co-enrichment or nearness to the bait. Other partners may have been found. For some of these results: No binding means not detected with the bait. Values belong to the molecule of their own block, whether it stands above or below them.

By UniProt entry, the sequences of proteins in these tests, tags left out.
UniProt P46096: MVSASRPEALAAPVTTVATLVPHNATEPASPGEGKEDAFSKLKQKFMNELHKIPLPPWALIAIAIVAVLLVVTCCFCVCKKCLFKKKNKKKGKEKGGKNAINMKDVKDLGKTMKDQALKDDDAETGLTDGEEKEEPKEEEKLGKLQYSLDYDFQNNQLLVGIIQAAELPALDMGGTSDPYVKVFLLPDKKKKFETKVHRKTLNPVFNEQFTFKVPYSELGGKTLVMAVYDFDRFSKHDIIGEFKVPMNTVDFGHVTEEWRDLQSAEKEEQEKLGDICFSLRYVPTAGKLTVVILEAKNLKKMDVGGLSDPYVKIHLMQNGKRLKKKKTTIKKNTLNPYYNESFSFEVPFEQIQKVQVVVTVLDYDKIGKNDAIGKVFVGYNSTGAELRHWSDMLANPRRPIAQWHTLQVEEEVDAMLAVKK
UniProt P60879: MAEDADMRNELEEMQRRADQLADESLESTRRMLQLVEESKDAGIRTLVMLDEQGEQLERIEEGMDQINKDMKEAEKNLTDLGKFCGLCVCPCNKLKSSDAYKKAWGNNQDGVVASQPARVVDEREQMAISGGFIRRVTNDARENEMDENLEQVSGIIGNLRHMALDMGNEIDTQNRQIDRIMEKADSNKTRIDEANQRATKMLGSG
UniProt P33173: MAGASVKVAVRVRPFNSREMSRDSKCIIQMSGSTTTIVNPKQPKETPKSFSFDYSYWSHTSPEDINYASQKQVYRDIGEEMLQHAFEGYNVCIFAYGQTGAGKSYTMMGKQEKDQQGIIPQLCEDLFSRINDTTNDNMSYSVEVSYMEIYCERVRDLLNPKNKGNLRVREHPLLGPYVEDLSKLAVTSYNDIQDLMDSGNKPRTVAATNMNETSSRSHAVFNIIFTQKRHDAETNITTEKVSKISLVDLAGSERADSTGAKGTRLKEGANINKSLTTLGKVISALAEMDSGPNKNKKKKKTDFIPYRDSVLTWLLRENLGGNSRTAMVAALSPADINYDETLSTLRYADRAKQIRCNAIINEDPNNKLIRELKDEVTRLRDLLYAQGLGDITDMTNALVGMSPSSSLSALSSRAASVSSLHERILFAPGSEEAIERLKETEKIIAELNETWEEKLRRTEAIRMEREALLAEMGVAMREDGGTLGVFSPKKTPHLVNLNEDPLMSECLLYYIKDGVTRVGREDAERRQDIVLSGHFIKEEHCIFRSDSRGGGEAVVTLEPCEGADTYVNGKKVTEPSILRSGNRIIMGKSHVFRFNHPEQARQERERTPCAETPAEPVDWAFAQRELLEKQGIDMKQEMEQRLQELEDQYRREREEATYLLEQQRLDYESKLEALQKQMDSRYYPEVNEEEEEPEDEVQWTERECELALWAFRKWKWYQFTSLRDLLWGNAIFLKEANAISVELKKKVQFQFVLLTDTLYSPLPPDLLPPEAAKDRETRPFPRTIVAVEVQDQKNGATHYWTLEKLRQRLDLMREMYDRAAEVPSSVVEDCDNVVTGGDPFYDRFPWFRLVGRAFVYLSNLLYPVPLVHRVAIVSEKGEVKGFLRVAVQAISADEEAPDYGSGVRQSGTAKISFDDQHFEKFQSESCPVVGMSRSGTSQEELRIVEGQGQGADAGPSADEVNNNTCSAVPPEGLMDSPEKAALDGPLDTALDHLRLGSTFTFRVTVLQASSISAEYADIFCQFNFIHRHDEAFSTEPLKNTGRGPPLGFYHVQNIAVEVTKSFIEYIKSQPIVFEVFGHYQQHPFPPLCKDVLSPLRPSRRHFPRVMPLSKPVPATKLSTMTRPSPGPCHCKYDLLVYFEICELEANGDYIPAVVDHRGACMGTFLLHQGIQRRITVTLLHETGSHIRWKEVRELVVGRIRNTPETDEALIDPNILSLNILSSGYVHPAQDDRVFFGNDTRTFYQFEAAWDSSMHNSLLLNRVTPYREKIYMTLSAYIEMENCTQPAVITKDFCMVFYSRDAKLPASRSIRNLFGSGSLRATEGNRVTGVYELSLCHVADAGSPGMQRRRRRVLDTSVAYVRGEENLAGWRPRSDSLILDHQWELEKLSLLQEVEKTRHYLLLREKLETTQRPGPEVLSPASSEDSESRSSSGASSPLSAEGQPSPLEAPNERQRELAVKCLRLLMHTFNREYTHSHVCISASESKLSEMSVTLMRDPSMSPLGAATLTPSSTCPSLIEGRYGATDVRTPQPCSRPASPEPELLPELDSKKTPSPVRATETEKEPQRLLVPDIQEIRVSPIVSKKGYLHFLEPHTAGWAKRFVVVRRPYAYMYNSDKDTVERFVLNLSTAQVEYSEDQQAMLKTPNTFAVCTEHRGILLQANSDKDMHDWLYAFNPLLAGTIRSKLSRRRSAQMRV
UniProt P61264: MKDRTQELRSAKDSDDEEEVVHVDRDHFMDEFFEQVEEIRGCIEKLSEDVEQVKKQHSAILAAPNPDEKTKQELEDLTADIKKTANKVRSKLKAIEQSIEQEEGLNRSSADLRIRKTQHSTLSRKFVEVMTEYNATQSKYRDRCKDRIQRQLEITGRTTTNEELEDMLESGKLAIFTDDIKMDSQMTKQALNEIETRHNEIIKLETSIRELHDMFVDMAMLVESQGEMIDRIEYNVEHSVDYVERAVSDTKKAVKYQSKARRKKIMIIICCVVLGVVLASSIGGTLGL

How the values were obtained:
Assay in all cases: affinity purification with mass spectrometry; IP with 10 ug antibody to the bait from 5 mg mouse hippocampal P2 + microsome fraction extracted with Triton X-100, 150 mM NaCl, 50 mM HEPES pH 7.4; overnight, Protein A/G PLUS-Agarose 1 h at 4 C, four washes with 0.1% Triton X-100 buffer; SDS-PAGE, in-gel digestion, LC-MS-MS, label-free iBAQ
[1] = target: T1, tomosyn-2 (mouse (endogenous in hippocampal P2 + microsome fraction)) (UniProt Q5DQR4)
T1 sequence: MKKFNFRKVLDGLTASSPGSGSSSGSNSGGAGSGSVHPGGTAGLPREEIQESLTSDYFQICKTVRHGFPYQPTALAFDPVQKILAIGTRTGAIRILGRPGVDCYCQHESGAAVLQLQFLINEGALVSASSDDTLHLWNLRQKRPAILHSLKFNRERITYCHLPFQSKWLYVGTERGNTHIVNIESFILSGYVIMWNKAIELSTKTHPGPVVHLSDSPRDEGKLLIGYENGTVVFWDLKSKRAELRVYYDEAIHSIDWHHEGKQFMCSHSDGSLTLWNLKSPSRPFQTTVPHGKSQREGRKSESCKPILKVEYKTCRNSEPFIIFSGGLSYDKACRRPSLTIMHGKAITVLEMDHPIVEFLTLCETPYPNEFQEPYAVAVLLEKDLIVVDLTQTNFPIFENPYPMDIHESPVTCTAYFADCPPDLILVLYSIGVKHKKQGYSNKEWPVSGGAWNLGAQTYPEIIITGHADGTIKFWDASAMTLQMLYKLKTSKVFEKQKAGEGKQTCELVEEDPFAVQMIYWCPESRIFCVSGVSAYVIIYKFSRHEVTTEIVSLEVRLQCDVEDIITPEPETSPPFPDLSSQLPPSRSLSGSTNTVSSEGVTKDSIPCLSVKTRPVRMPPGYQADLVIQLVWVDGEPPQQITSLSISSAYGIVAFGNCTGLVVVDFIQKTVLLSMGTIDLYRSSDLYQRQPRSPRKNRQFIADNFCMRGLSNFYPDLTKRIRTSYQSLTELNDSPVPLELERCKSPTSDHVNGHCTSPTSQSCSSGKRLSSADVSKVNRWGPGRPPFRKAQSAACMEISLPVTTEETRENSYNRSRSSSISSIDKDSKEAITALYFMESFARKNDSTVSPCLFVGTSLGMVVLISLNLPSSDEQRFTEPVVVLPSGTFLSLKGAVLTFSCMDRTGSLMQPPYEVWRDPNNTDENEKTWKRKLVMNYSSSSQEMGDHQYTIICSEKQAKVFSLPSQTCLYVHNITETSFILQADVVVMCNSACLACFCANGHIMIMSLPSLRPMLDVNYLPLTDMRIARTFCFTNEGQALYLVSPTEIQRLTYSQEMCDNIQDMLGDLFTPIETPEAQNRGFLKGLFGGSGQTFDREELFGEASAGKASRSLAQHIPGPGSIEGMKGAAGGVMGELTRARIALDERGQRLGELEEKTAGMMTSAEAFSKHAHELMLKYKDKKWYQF

[2] = target: T2, tomosyn-1 (mouse (endogenous in hippocampal P2 + microsome fraction)) (UniProt Q8K400)
T2 sequence: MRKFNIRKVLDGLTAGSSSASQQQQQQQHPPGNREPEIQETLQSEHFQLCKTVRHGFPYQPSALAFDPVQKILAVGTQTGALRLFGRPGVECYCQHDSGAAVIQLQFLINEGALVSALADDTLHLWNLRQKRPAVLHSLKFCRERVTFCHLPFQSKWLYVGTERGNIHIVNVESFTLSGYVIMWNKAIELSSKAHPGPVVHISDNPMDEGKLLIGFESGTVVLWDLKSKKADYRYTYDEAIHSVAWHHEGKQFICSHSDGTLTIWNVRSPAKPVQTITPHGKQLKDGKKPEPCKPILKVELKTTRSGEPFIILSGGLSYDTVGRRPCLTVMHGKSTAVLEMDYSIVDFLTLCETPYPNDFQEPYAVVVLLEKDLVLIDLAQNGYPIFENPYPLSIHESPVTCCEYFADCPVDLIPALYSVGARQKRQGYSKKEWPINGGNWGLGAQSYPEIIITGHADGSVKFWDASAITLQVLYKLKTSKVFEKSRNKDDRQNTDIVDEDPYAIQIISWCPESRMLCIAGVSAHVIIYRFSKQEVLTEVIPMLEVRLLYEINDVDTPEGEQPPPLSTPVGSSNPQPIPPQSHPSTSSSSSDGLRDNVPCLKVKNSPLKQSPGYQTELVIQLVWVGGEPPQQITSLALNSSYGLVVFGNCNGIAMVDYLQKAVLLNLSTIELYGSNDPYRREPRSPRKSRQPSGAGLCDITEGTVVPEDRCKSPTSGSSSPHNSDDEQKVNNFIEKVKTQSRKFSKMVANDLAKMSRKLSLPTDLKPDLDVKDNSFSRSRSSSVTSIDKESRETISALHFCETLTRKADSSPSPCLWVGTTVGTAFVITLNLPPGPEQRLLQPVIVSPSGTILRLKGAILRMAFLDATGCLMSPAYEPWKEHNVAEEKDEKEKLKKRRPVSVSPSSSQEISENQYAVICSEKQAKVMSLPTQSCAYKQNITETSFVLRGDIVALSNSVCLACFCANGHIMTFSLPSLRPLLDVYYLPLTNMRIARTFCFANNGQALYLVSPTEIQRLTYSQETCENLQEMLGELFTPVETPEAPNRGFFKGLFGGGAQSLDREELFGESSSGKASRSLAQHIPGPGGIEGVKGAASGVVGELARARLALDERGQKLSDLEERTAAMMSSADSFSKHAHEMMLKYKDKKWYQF

[3] = target: synaptotagmin-1 (mouse (endogenous in hippocampal P2 + microsome fraction)) (UniProt P46096)
[4] = target: SNAP25 (mouse (endogenous in hippocampal P2 + microsome fraction)) (UniProt P60879)

Molecule: KIF1A (from UniProt P33173 1-1695)
- binding [1]: no binding
- binding [2]: no binding

Molecule: Stx1b (from UniProt P61264 1-288)
- binding [3]: binds
- binding [2]: binds
- binding [4]: binds

Molecule: synaptotagmin-1 (from UniProt P46096 1-421)
- binding [2]: binds

B1: tomosyn-2 (protein, UniProt Q5DQR4-1 1-1185)
chain: T1 sequence
- binding [3]: binds
- binding [2]: binds
- binding [4]: binds

Other lines, results leading:

- binding [2]: no binding
Molecule: Rab3

- binding [1]: no binding
- binding [2]: no binding
Molecule: type V myosin

- binding [3]: binds
B2: tomosyn-1 (protein, UniProt Q8K400 1-1152)
chain: T2 sequence
